Tests used:
[1] = system: mouse immortalized TT-D6 Scx-luciferase (ScxL) cell line; transcriptional activation of Scleraxis (Scx) gene; experiment: SCX-LUC in vitro assay (scleraxis promoter luciferase reporter); format: cell-based; conditions: 96 h, read-out: Scx-Luc (EC50 uM)
[2] = system: Tenomodulin (Tnmd) gene expression in rat tail tendon fascicles; experiment: Ex vivo assay, tendon fascicles, Tenomodulin mRNA (qPCR); format: cell-based, Sprague Dawley rat; conditions: 96 h, read-out: Ex vivo Tnmd (EC50 uM)
[3] = system: collagen type 1 (Col1a2) gene expression in rat tail tendon fascicles; experiment: Ex vivo assay, tendon fascicles, collagen type 1 mRNA (qPCR); format: cell-based, Sprague Dawley rat; conditions: 96 h, read-out: Ex vivo Col1a2 (EC50 uM)

In the case of `C[C@@H]1CCN(C(=O)CC#N)C[C@@H]1N(C)c1ncnc2[nH]ccc12` [reference compound], the EC50 [1] is reported as 0.37 µM, the EC50 [2] is reported as 1.26 µM and the EC50 [3] is reported as 2.75 µM.

From patent publication US10766894B2, “Aza-indazole compounds for use in tendon and/or ligament injuries” (NOVARTIS AG, priority 2016, dated 2020)
